The other results are listed elsewhere or left out. These are further read-outs of the screen, such as a control signal, another cell line or another target. No call is given for them. Most of these compounds were active or inconclusive in the main read-out, so they are no random draw. The note in brackets gives the kind of curve behind each potency; many fits are weak.
Test: qHTS Assay for Modulators of Lamin A Splicing
Settings: HeLa LMNA splicing GFP/RFP minigene ratio, 48 h
Method in brief: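 Read-out is the ratio of GFP to DsRed2 object intensity, acquired by 488 nm laser-scanning cytometry on HeLa lamin A-EGFP minigene reporter cells. Compound incubation 48 hrs at 37 °C in Opti-MEM with 2% FBS; DMSO 0.5% final.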

[1] = measured here: GFP splicing reporter channel
[2] = measured here: RFP viability control channel

| Compound | AC50 [1] | AC50 [2] |
| --- | --- | --- |
| COc1ccc(CNc2ccnc(-c3cccc(NS(C)(=O)=O)c3)n2)c(OC)c1 | 12.6 µM [falling, partial curve] |  |
| COC(=O)C1=C(C)NC(C)=C(C(=O)OCCN(C)Cc2ccccc2)[C@H]1c1cccc([N+](=O)[O-])c1 | 7.08 µM [falling, partial curve] | 3.16 µM [falling, partial curve] |
| COc1ccc2nc(NC(=O)C3CCCN3S(=O)(=O)c3ccc(C)cc3)sc2c1 (stereo unspecified) |  | 15.8 µM [rising, single point] |
| O=C(O)/C=C\C(=O)Nc1ccc(OC(F)F)cc1 | 0.0178 µM [rising, full curve, poor fit] |  |
| COc1ccc([N+](=O)[O-])cc1NC(=O)Nc1ccccc1 | 14.1 µM [rising, partial curve] | 15.8 µM [rising, partial curve] |
| CN(Cc1ccccc1)C(=O)c1cc(-c2ccc(Br)cc2)on1 | 12.6 µM [rising, single point] | 22.4 µM [rising, single point] |
| Cc1cccc(OCC(O)CN2CCN(CCN3C(=O)c4cccc5cccc(c45)C3=O)CC2)c1C (stereo unspecified) | 22.4 µM [falling, single point] | 3.55 µM [falling, partial curve] |
| CCOc1ccc(S(=O)(=O)Nc2ccc(O)c(Sc3ncn[nH]3)c2)cc1 |  | 14.1 µM [rising, partial curve] |
| CNC(=O)c1nnsc1S(=O)(=O)c1ccc(Cl)cc1 |  | 1.26 µM [falling, single point] |
| CN(C)S(=O)(=O)c1cccc(NC(=O)c2cc3ccccc3o2)c1 |  | 35.5 µM [rising, single point] |
| O=C(CC1SC(=Nc2ccccc2)N(Cc2ccccn2)C1=O)Nc1ccc(Br)cc1 (stereo unspecified) | 20 µM [falling, partial curve, poor fit] |  |
| CCC(C(=O)c1ccc2ncccc2c1)c1ccccc1 (stereo unspecified) | 11.2 µM [rising, partial curve] | 12.6 µM [rising, partial curve] |
| COc1ccc(CN=C(NS(=O)(=O)c2cccs2)SC)cc1 |  | 22.4 µM [rising, single point] |
| Nc1nc(CN2CCN(c3ccccc3)CC2)nc(N2CCCc3ccccc32)n1 |  | 6.31 µM [rising, full curve, poor fit] |
| Cc1ccccc1OCC(=O)Nc1cc(-c2cccc(Br)c2)nn1-c1ccccc1 | 0.0251 µM [rising, full curve, poor fit] | 7.94 µM [rising, partial curve, poor fit] |
| O=C(NCc1nc2cccnc2n1Cc1ccc(F)cc1)c1ccccc1C(F)(F)F |  | 0.0355 µM [falling, full curve] |
| CCCCNC(=O)CCC(=O)Nc1ccc2nc(N3CCN(C)CC3)cc(C)c2c1 |  | 10 µM [falling, partial curve] |
| O=C(c1cccc(Cl)c1)N1CCN(CCc2ccccn2)CC1 | 0.794 µM [falling, partial curve, poor fit] |  |
| CCCCNC(=O)c1c(C)oc2ncn(CC(C)C)c(=O)c12 | 0.0224 µM [falling, full curve, poor fit] | 0.0447 µM [falling, full curve] |
| O=C(Nc1cccc(-c2cn3c(n2)SCC3)c1)c1ccc2ccccc2n1 | 12.6 µM [falling, partial curve] | 15.8 µM [falling, partial curve] |
| CCc1ccc2c(CN3CCN(S(=O)(=O)c4cccs4)CC3)cc(=O)oc2c1 |  | 14.1 µM [rising, single point] |
| Brc1ccc(-c2csc(-c3ccncc3)n2)cc1 |  | 0.0562 µM [rising, full curve] |
| O=C(CSc1nnc(-c2cc3ccccc3cc2O)n1Cc1ccco1)c1ccc(F)cc1 |  | 35.5 µM [rising, single point] |
| Cc1nnc(SCC2=C(C(=O)O)N3C(=O)C(NC(=O)Cn4nc(C(F)F)cc4C)C3SC2)s1 (stereo unspecified) |  | 0.501 µM [rising, partial curve, poor fit] |
| COc1ccc(OC)c(NC(=O)CN(C)S(=O)(=O)c2ccc3[nH]c4c(c3c2)CCCC4)c1 | 35.5 µM [falling, single point] |  |
| CCN(CC)c1ccc2cc(NC(=O)CCC(=O)O)c(=O)oc2c1 |  | 11.2 µM [falling, partial curve, poor fit] |
| CC1(C)CC(C(CCN(Cc2ccccc2)C(=O)c2ccco2)c2ccc(F)cc2)CCO1 (stereo unspecified) | 15.8 µM [falling, single point] | 14.1 µM [falling, single point] |

| Compound | AC50 [1] | AC50 [2] |
| --- | --- | --- |
| O=c1c2ccccc2c(C=NCCCN2CCOCC2)c(O)n1Cc1ccc2c(c1)OCO2 |  | 0.224 µM [rising, partial curve, poor fit] |
| Cc1noc(C)c1COc1ccc2ccc(=O)oc2c1 | 20 µM [rising, single point] | 20 µM [rising, partial curve, poor fit] |
| CCOc1ccc(NC(=O)c2c(NCc3ccc(C)o3)sc3c2CCC(C)C3)cc1 (stereo unspecified) |  | 35.5 µM [rising, single point] |
| O=C(COC(=O)C1(c2ccc(Cl)cc2)CCCC1)Nc1ncc(C(F)(F)F)cc1Cl | 11.2 µM [rising, partial curve] | 11.2 µM [rising, partial curve] |
| COc1ccc(C(=O)NCCc2sc(-c3ccc(Cl)cc3)nc2C)c(OC)c1 |  | 0.158 µM [rising, full curve, poor fit] |
| COc1ccc(C)cc1NC(=O)NCc1ccc2c(c1)CCN2C(=O)c1ccccc1 | 0.794 µM [rising, full curve, poor fit] |  |
| CC(C)CN(Cc1c(O)ccc2ccccc12)CC(C)C | 0.0631 µM [falling, full curve, poor fit] | 17.8 µM [falling, partial curve, poor fit] |
| CC(=O)N(Cc1ccc(F)cc1)C1=C(NCCc2ccccc2)C(=O)c2ccccc2C1=O | 22.4 µM [falling, single point] | 5.62 µM [rising, single point] |
| CCCN1C(=O)C(Cc2nc3ccccc3c(=O)n2-c2ccccc2)c2cc(C)ccc21 (stereo unspecified) | 15.8 µM [rising, single point] | 22.4 µM [rising, single point] |
| COC(=O)c1ccccc1CCC(C)=O |  | 35.5 µM [falling, partial curve, poor fit] |
| COc1cc(/C=C/C(=O)NC(C)CCc2ccccc2)cc(OC)c1OC (stereo unspecified) |  | 14.1 µM [rising, single point] |
| CCOC(=O)N1c2ccccc2C=CC1OCC (stereo unspecified) |  | 1.41 µM [rising, single point] |
| O=C(NCCOCc1ccc(Cl)cc1)c1ncn[nH]1 | 0.501 µM [rising, full curve, poor fit] | 0.0224 µM [rising, full curve] |
| COc1ccc(CNc2ncncc2-c2ccccc2C(F)(F)F)c(OC)c1 | 0.282 µM [falling, full curve, poor fit] |  |
| COc1cc(/C=N/n2nnnc2N)ccc1OCc1c(C)no[n+]1[O-] | 15.8 µM [rising, partial curve] | 0.178 µM [rising, full curve, poor fit] |
| COc1cccc(Cn2c(=O)c(CCc3ccccc3)nc3cnc(N4CCN(C)CC4)nc32)c1 | 17.8 µM [falling, partial curve] | 22.4 µM [falling, single point] |
| O=C(/C=C/c1ccccc1)Nc1cccc(S(=O)(=O)Nc2ccccc2F)c1 | 28.2 µM [rising, single point] | 31.6 µM [rising, single point] |
| N#Cc1nc(Cc2ccccc2)oc1NCc1ccccc1Cl |  | 8.91 µM [rising, partial curve] |
| COc1cc(OC)c(OC)cc1/C=C1\CCC(C2CCCC2)C1=O (stereo unspecified) |  | 35.5 µM [rising, single point] |
| Cc1cccc(C(=O)NCCc2n[nH]c(=S)n2C)c1 | 0.00447 µM [falling, full curve] |  |
| O=C(O)/C=C/C(=O)Nc1ccc(OC(F)(F)Cl)cc1 | 0.00355 µM [rising, full curve] |  |
| NCC[C@H](O)C(=O)N[C@@H]1C[C@H](N)[C@@H](O[C@H]2O[C@H](CN)[C@@H](O)[C@H](O)[C@H]2O)[C@H](O)[C@H]1O[C@H]1O[C@H](CO)[C@@H](O)[C@H](N)[C@H]1O | 0.002 µM [falling, full curve, poor fit] | 0.158 µM [falling, full curve, poor fit] |
| CCNS(=O)(=O)c1cccc(C(=O)c2c(C)cc3ccccn23)c1 | 31.6 µM [rising, single point] | 35.5 µM [rising, single point] |
| Cn1c(=O)[nH]c(=O)c2c1nc(N1CCCCC1)n2CCCSc1nc2ccccc2s1 |  | 31.6 µM [rising, single point] |
| N#Cc1cccc(-c2ccc3ncnc(NCCN4CCOCC4)c3c2)c1 | 11.2 µM [falling, partial curve] |  |
| CC(C)CC(COCc1cccc(Cl)c1)N1CCN(C(=O)c2ccc(C(F)(F)F)cc2)CCC1=O (stereo unspecified) | 14.1 µM [rising, single point] | 31.6 µM [rising, single point] |
| Clc1ccc(C2=NCCN2)cc1 | 0.0224 µM [falling, full curve, poor fit] | 0.0316 µM [falling, full curve, poor fit] |

Random excerpt: four entries already listed.

| Compound | AC50 [1] | AC50 [2] |
| --- | --- | --- |
| CC(C)CN(Cc1c(O)ccc2ccccc12)CC(C)C | 0.0631 µM [falling, full curve, poor fit] | 17.8 µM [falling, partial curve, poor fit] |
| CCNS(=O)(=O)c1cccc(C(=O)c2c(C)cc3ccccn23)c1 | 31.6 µM [rising, single point] | 35.5 µM [rising, single point] |
| N#Cc1nc(Cc2ccccc2)oc1NCc1ccccc1Cl |  | 8.91 µM [rising, partial curve] |
| COc1cc(OC)c(OC)cc1/C=C1\CCC(C2CCCC2)C1=O (stereo unspecified) |  | 35.5 µM [rising, single point] |

Reference: PubChem BioAssay AID1487 (National Center for Advancing Translational Sciences (NCATS), 2009)
